Measurements reported in the supplement of paper PMC9433722.
Where a name gives a salt, the structure may show the parent alone. The list shows a part of the results. Many values rest on one well or one pass, so single values are uncertain.

How the values were obtained:
[1] = test system: Saos-2; assay: cell viability (CCK-8) relative to DMSO control (% of control); higher = less cytotoxic; conditions: 10 µM; 48 h
[2] = test system: U2OS; assay: as above; conditions: 10 µM; 48 h

SMILES | cell viability [1] | cell viability [2]
CCN1CC(CCN2CCOCC2)C(c2ccccc2)(c2ccccc2)C1=O (configuration not stated) [Doxapram·HCl H2O] | 117 | 105
OC(Cn1cncn1)(Cn1cncn1)c1ccc(F)cc1F [Fluconazole] | 69.5 | 113
Clc1ccc(CO/N=C(\Cn2ccnc2)c2ccc(Cl)cc2Cl)c(Cl)c1 [Oxiconazole Nitrate] | 67.5 | 116
CC(=O)N(O)CCCCCNC(=O)CCC(=O)N(O)CCCCCNC(=O)CCC(=O)N(O)CCCCCN [Deferoxamine Mesylate] | 91 | 77.7
CN(C)CCCN1c2ccccc2CCc2ccccc21 [Imipramine·HCl] | 60.7 | 113
Cn1c(=O)c2[nH]cnc2n(C)c1=O [Oxtriphylline] | 109 | 118
COc1c2occc2cc2ccc(=O)oc12 [Methoxsalen (Xanthotoxin)] | 93.5 | 93.1
CN(CCOc1ccc(CC2SC(=O)NC2=O)cc1)c1ccccn1 (configuration not stated) [Rosiglitazone] | 56.9 | 112
CCOC(=O)O[C@]1(C(=O)OCCl)CC[C@H]2[C@@H]3CCC4=CC(=O)C=C[C@]4(C)[C@H]3[C@@H](O)C[C@@]21C [Loteprednol Etabonate] | 107 | 103
C[C@]12CCC3=C4CCC(=O)C=C4CC[C@H]3[C@@H]1CC[C@@]2(O)CC#N [Dienogest] | 114 | 108
Clc1ccc(C(Cn2ccnc2)OCc2csc3c(Cl)cccc23)c(Cl)c1 (configuration not stated) [Sertaconazole . Nitrate] | 60.2 | 116
CC1=C(/C=C/C(C)=C\C=C\C(C)=C\C(=O)O)C(C)(C)CCC1 [9-cis-Retinoic acid] | 101 | 103
CC(=O)NCCCS(=O)(=O)O [Acamprosate calcium] | 94.4 | 81.5
Clc1ccccc1CN1CCc2sccc2C1 [Ticlopidine·HCl] | 67.1 | 97.2
Cc1ncc([N+](=O)[O-])n1CCO [Metronidazole] | 73.9 | 101
CCCCC1=NC2(CCCC2)C(=O)N1Cc1ccc(-c2ccccc2-c2nnn[nH]2)cc1 [Irbesartan] | 105 | 96.4

SMILES | cell viability [1] | cell viability [2]
CC/C(=C(\c1ccccc1)c1ccc(OCCN(C)C)cc1)c1ccccc1 [Tamoxifen . citrate] | 59.3 | 104
C=CC1=C(C(=O)O)N2C(=O)[C@@H](NC(=O)/C(=N\O)c3csc(N)n3)[C@H]2SC1 [Cefdinir] | 117 | 89.1
CC(=O)N[C@H]1[C@H]([C@H](O)[C@H](O)CO)OC(C(=O)O)=C[C@@H]1NC(=N)N [Zanamivir] | 148 | 81.6
CN(C)CC(c1ccc(O)cc1)C1(O)CCCCC1 (configuration not stated) [Desvenlafaxine Succinate Hydrate] | 114 | 105
CCC1=C[C@@H]2CN(C1)Cc1c([nH]c3ccccc13)[C@@](C(=O)OC)(c1cc3c(cc1OC)N(C)[C@H]1[C@@](O)(C(=O)OC)[C@H](OC(C)=O)[C@]4(CC)C=CCN5CC[C@]31[C@@H]54)C2 [Vinorelbine] | 28.1 | 80.1
Cc1cccc(CN2CCN(C(c3ccccc3)c3ccc(Cl)cc3)CC2)c1 (configuration not stated) [Meclizine Dihydrochloride] | 108 | 103
CO[C@H]1O[C@@H]2O[C@@]3(C)CC[C@H]4[C@H](C)CC[C@@H]([C@H]1C)[C@@]24OO3 [Artemether] | 132 | 117
COC(=O)C1=C(C)NC(C)=C(C(=O)OCCN(C)Cc2ccccc2)C1c1cccc([N+](=O)[O-])c1 (configuration not stated) [Nicardipine . hydrochloride] | 64.7 | 87.8
c1ccc2c(CC3=NCCN3)cccc2c1 [Naphazoline·HCl] | 71.2 | 95.7
COc1ccc(O)cc1 [Mequinol] | 95 | 93.6
CN1CC(=O)N2[C@H](c3ccc4c(c3)OCO4)c3[nH]c4ccccc4c3C[C@@H]2C1=O [Tadalafil] | 109 | 104
CN1CCCC(n2nc(Cc3ccc(Cl)cc3)c3ccccc3c2=O)CC1 (configuration not stated) [Azelastine·HCl] | 109 | 109
Nc1ccn([C@H]2CC[C@@H](CO)O2)c(=O)n1 [Zalcitabine] | 69 | 107
Nc1cccc2c1CN(C1CCC(=O)NC1=O)C2=O (configuration not stated) [Lenalidomide] | 108 | 84.2
Oc1c(Cl)cc(Cl)c(Cl)c1Cc1c(O)c(Cl)cc(Cl)c1Cl [Hexachlorophene] | 73.3 | 68.5

Full records, quoted from the list.
CN1CC(=O)N2[C@H](c3ccc4c(c3)OCO4)c3[nH]c4ccccc4c3C[C@@H]2C1=O [Tadalafil] is entered as cell viability [1]: 109; cell viability [2]: 104
CN(C)CC(c1ccc(O)cc1)C1(O)CCCCC1 (configuration not stated) [Desvenlafaxine Succinate Hydrate] is entered as cell viability [1]: 114; cell viability [2]: 105
